Paper PMC10940622
Results are given in words; binding and its absence hold for the method and conditions named. In cells and extracts the contact can be indirect. Some entries that bind do so weakly or less than the wild type.

Sequences of proteins named here, by UniProt entry; tags and fusion partners are left off. Residues count along the entry.
UniProt Q9NXA8, residues 37-310: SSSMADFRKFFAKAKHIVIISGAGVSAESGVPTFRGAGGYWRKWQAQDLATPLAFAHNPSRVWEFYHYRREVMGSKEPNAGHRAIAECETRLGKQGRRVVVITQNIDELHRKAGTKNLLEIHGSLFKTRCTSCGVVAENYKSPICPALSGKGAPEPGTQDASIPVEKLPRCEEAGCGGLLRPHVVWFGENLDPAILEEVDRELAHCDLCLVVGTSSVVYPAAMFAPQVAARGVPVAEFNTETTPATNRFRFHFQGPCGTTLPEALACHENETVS
UniProt P49773: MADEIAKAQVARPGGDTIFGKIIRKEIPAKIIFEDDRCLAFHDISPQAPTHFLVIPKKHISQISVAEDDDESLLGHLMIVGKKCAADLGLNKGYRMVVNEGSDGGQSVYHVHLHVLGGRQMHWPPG

Biological target: Flag-SIRT5, ectopically expressed in 293T cells (UniProt Q9NXA8)
Test: co-IP; 293T cells expressing Flag-SIRT5 and GFP-HINT1, 1% NP-40 lysate; precipitated with anti-Flag beads (Flag Fab-Trap agarose) overnight at 4 °C; immunoblot

GFP-HINT1, ectopically expressed in 293T cells (from UniProt P49773 1-126)
binding: binds
